Results from one PubChem assay

From PubChem BioAssay record AID1159506 (NCATS, 2015).

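Genome-wide siRNA knockdown in TC32 Ewing sarcoma cells, comparing luciferase light from an NR0B1-promoter reporter with a CMV-promoter reporter 48 hours after transfection.
Each siRNA was applied at 20 nM.
A z-score of the log NR0B1-over-CMV signal, less the median of siRNAs with the same seed; more negative means a stronger specific loss of the NR0B1 reporter.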

The strongest results of the screen are mostly left out here.
Sequences are the guide (antisense) strand, without overhang.

| Sequence | target gene | seed-corrected z-score |
|---|---|---|
| `UGAUGGAUCACGCAGCAGU` | NMRK2 | 0.4464 |
| `UCAUCGACCUCACUUGUCC` | MAK | 0.5012 |
| `UUAUGUUGCAGCUGGAGUU` | GIGYF1 | -0.5188 |
| `UGGUAUUAAAGUCACAAAG` | DEFB130 | 1.47 |
| `UCUGUAUCUGAGUAGGUUC` | PLEKHA3 | -0.02126 |
| `UGUUGCUCCAUGAGGAAGG` | BBS1 | -0.4077 |
| `UCAGAGCUUCUGGUAAGCC` | FAM162A | -0.1125 |
| `UUGGAUUCCGCAAUGAGCU` | GPKOW | 0.9692 |
| `AGGGAGAAUAGGGAUGUGG` | PRR30 | -1.588 |
| `UAAGCUACGUUGCUUAGGC` | SMC3 | 1.552 |
| `UUAGGAAUACGACCAAACC` | NR1D2 | 0.5784 |
| `UGUCGAGUGAAGUUGAUGG` | MAGEA1 | 1.092 |
| `UCGUUAGCUAAAACAAUUC` | PGM2 | 0.04036 |
| `UGUUAUCCAAUAACGACAG` | MGA | 0.366 |
| `UGAGUGAUAUACUUCAGCC` | MROH8 | 0.1428 |
| `AAAGGAAAUAGUCAUUGCG` | RAD21-AS1 | 0.8012 |
| `UACUUUCUUCAUGCGGUUG` | DRC1 | 0.6264 |
| `UCACCCACAACCGUGAUUG` | PRPSAP2 | 0.0814 |
| `UUCCGUUCUUGUAACUUAC` | DYNC2H1 | 0.17 |
| `UUUUCUCCCAAUGCGAGCG` | UVSSA | 0.05362 |
| `UAAAGGUACAGUCCGUAUG` | PSMC5 | -1.318 |
| `AUAUGGAUUAUUAGCUAGG` | UBAP2 | 0.7108 |
| `UACGCAGUAAAUACUCCUC` | XPO6 | 1.119 |
| `AGCUUAUCAAUGAGUAUUC` | RASSF9 | -1.052 |
| `AUCCCGUUUCUUUAGAUUC` | ANTXRL | -0.9465 |
| `UUUGAAAUGAUCCGUCAGG` | UFC1 | 0.668 |
| `UCUUUUUAUAUUGCGGAAG` | CLPSL2 | -0.2596 |
| `UAUGUUCAAACUCAUUCGG` | ZNF48 | -1.005 |
| `UUCGUUUUGUUGUUUACGC` | HAUS2 | 0.1974 |
| `UGUGAUCUCUGGAAACUCC` | UPRT | 2.931 |
| `UUAAUAAGGAUUGCAGAUC` | ZNF208 | 0.1209 |
| `UAGGGUAUUUCCAGGAUGG` | SERPINA12 | 0.1177 |
| `AUCUGUGACGCAUUCAUCC` | EXOC3L2 | 0.08093 |
| `UAAGGAGUGAUACAGCUGC` | TRIM27 | 0.1263 |
| `UAACAGCAUAGACAGGUGC` | WDR4 | 0.9509 |
| `UCCAGGUCAGGGAAAUUCU` | CALY | -0.02894 |
| `AACCCGAAUAUGAACAUCC` | TUSC3 | -0.4121 |
| `UACGAUAUCAUUUCCAAUG` | SIPA1L1 | 0.8046 |
| `GUGUUGCUUAUGACUCUCC` | OLFM1 | 0.09528 |
| `CCGGUAGUAAUUCUGCUCG` | FOXC2 | -0.8411 |
| `UUUGCCUCCAAACCUCAGC` | CDK5R2 | -0.1892 |
| `AAGUCUUUAAGUAAACACG` | GATA3-AS1 | 0.9598 |
| `AAACUUGUAUGGUGGGUUC` | SYT11 | 0.3682 |
| `UUUUCGCAAAGCUAUUCCC` | FABP5P9 | 1.261 |
| `UAUCUGGUGACUGUUGCUC` | MAT2A | -0.03016 |
| `UCUCCCAGCAUCGUAGUCC` | NCBP2 | -1.086 |
| `UUCGUUAAUAGGAAACAGG` | GRM3 | -0.1708 |
| `UUAGAUAAGUCUUUGUAAC` | METTL24 | 0.3924 |
| `AUUGGGUUUUCAGCGACCG` | PCDHGB1 | 1.305 |
| `UGAUGUAUAAUGAAACUGG` | ZNF211 | -1.401 |
| `UUCAUCUGCAGGUACCGCC` | ACOT7 | -0.3414 |
| `AAAGUGGAAUUCUUUCUCG` | HOXC5 | -0.07243 |
| `AAAGAGAUCAAGGACCAUG` | SCNN1B | -0.6101 |
| `UUCUCAAUCUGGACACUCU` | SLC5A10 | -0.2104 |
| `GGAGGAAAUGCUCCUGUGA` | METTL15P3 | 0.3949 |
| `UACGCAAUAACCUGAGGGC` | CACNA1A | -0.2375 |
| `AACUUGAUCUUUUAGUAGC` | EXOSC9 | -0.177 |
| `AUCACUAUCACUUGUUUGC` | RBM11 | 0.4006 |
| `UCACGACCAUCUUCUAACC` | ACOX2 | -1.634 |
| `AGCUUGUCUAUGUAGUUGC` | LRRC18 | -1.188 |
| `UUCAGGUAGCGGUCAAAGC` | CXCR3 | 1.856 |
| `UACAGAAACACCCUCGGCG` | CPEB2-AS1 | -0.1394 |
| `UAACGAACUGUCCUGUUGG` | LOC729968 | -0.04729 |
| `UAACGACCACUUGUUUUCC` | COX7C | 0.1057 |
| `UCUUCUACAAUCAUGAGGG` | FITM2 | -0.4658 |
| `AUCGGUAUCACGAAGCACA` | MSL3 | -0.1897 |
| `AGAACUUUAGCAUUCACGG` | TMCC3 | 0.3136 |